TcHisRS: 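Histidine-tRNA ligase, Trypanosoma cruzi CL Brener (UniProt Q4DA54). Enzyme assay of histidyl-tRNA synthetase; the read-out is not stated. Tested at 30 µM. The record gives no direction; compounds that gave an IC50 in retests scored well above the rest, so higher reads as stronger inhibition. Size under these conditions: about 69,000 compounds, about 31 of them at 50% or above in at least one test.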
ClpP1P2: 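ClpP1P2, Mycobacterium tuberculosis (UniProt P9WPC5 and UniProt P9WPC3). Protease assay of ClpP1P2, read by the AMC dye that it sets free. Compounds at 50 µM. Higher reads as stronger inhibition, judged from the few compounds that gave an IC50. Most other retested compounds had strongly negative values. Size under these conditions: about 69,000 compounds, about 10 of them at 50% or above in at least one test.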

By UniProt entry, the sequences of proteins in these tests, tags left out. Residues count along the entry.
UniProt Q4DA54, 1-478: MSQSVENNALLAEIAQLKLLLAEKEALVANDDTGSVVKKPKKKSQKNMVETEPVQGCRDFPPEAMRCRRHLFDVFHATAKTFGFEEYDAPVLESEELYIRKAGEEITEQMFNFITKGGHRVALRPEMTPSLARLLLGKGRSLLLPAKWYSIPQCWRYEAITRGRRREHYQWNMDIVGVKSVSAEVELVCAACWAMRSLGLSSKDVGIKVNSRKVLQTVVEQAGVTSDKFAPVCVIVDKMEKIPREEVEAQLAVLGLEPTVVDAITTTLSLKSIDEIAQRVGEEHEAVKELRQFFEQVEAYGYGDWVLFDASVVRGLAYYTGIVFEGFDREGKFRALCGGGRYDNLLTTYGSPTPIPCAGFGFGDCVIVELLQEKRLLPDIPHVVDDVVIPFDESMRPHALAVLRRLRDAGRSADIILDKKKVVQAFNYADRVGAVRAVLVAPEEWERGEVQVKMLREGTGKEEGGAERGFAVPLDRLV
UniProt P9WPC5, whole entry: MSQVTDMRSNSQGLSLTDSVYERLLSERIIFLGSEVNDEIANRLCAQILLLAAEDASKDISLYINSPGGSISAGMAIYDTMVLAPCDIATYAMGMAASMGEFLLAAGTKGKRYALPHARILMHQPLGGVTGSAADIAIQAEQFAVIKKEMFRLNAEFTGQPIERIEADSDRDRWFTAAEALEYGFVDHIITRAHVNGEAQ
UniProt P9WPC3, whole entry partner: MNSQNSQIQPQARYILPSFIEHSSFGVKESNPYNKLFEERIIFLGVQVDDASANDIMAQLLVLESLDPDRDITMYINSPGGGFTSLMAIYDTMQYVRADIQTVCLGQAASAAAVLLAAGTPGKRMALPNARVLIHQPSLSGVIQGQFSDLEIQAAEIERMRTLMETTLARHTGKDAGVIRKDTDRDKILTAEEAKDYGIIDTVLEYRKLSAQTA

Values are the deposited “Percent Effect”, in %. How 0% and 100% were set is not recorded. Most values in the screen are low, and negative values occur. Compounds were drawn at random from those tested, without regard to their results.

Compound	TcHisRS	ClpP1P2
COc1ccc(-c2cnc(N(C)C)nc2C2CN(C(C)=O)CCO2)cc1 (configuration not stated)	6.084	5.875
COc1ccc(Cc2nnc3n2N=C(C(C)(C)C)CS3)cc1	3.158	3.605
c1cc(CN2CCC(c3nnc4n3CCCCC4)CC2)c2c(c1)OCO2	9.392	-12.05
CS(=O)(=O)c1ccc2c(c1)N(C(=O)c1cccc(F)c1)CCC2	8.152	6.746
CN(C)c1nc2c(c(N3CCC(O)CC3)n1)CN(CC1CCOC1)CC2 (configuration not stated)	5.814	3.346
O=C(NCc1c[nH]c(=O)[nH]c1=O)C1CCOc2ccccc2C1 (configuration not stated)	-4.848	-8.446
COc1ccc(-n2ccc(C(=O)N3CCC(C(N)=O)C3)n2)cc1 (configuration not stated)	0.3831	-2.693
COc1cc(CNC(=O)COC2CCCCC2)ccc1O	4.972	4.698
Cn1c(CN2CC[C@](C)(O)C(C)(C)C2)cc2ccccc21	1.739	6.227
C[C@@H]1CN(C2(C(=O)N3CCOCC3)Cc3ccccc3C2)C[C@H](C)O1	4.878	-5.386
O=S(=O)(c1ccccc1)N1C[C@@H]2CCN[C@@H]2C1	1.942	-16.16
CCO[C@@H]1CC[C@H]2[C@H]1OCCN2C(=O)c1ccc(C)o1	3.279	-13.59
COCC(C)NCc1nc(-c2ccc(C)cc2)c(-c2ccccn2)[nH]1 (configuration not stated)	8.247	-12.9
CS(=O)(=O)CCC(=O)Nc1cnn(-c2ccccc2Cl)c1	-0.3831	9.761
COc1cccc(-c2noc(C3CCN(Cc4cn(C)nc4C)C3)n2)c1 (configuration not stated)	6.452	4.006
Cc1nc(C)n(C2CCCN(C(=O)Cc3n[nH]c4ccccc34)C2)n1 (configuration not stated)	2.29	4.494
Cc1c(C(=O)N2CCC(c3nc(C)n4ccsc34)CC2)cnn1C	11.11	10.73
CS(=O)(=O)N1CCO[C@@H]2CN(Cc3ccncc3)C[C@@H]2C1	7.527	3.147
CC(C)C(NCc1ccc(Cn2cncn2)cc1)c1ccccc1 (configuration not stated)	9	-3.194
O=C(C1CCOC1)N1CCC2(CC1)CN(Cc1nccs1)CCO2 (configuration not stated)	12.61	9.309
CN(C)c1ccc(-c2cc(C(=O)O)cc(S(=O)(=O)NC3CC3)c2)cc1	6.704	4.935
CC1=NOC(C(=O)N(C)CCCn2nc(C)cc2C)C1 (configuration not stated)	4.706	-0.526
CCn1nccc1CNC(=O)C(C)n1cc2c(n1)c(C)nn2C (configuration not stated)	-2.732	7.064
Cc1ccc(-n2nnc(C(=O)NCC(F)(F)F)c2C2CC2)cc1	3.468	-36.5
O=C(c1ccncc1)N1CCCn2nnc(Cn3cccn3)c2C1	2.299	4.094
CCc1c(C)[nH]c(C(C)(N)CC)nc1=O (configuration not stated)	7.937	5.877
O=C(Nc1ccccc1)[C@H]1C[C@@H]2CN(S(=O)(=O)c3ccccc3)C[C@H]1O2	1.22	-7.273
CS(=O)(=O)c1ccc(CN2CCCC3(C2)C(=O)Nc2ccccc23)cc1 (configuration not stated)	0.9662	-19.52
Cc1nn(C)c(Cl)c1C1CCCN1CC(=O)N1CCOCC1 (configuration not stated)	4.867	-14.47
Cn1cc(CN2C[C@@H]3COC[C@]3(CNC(=O)c3ccsc3)C2)cn1	7.104	-1.319
CN(C)c1cc(C2CCCN(S(=O)(=O)C3CCCC3)C2)ccn1 (configuration not stated)	1.521	-5.847
CN1CCO[C@@H]2CN(C(=O)NCc3ccccc3)CC[C@@H]2C1	3.175	-0.214
c1ccc(CO[C@H]2CC[C@H]3[C@H]2OCCN3Cc2nccs2)nc1	11.76	-14.08
CCN(CC)Cc1nnc2sc(-c3cc(C(C)C)[nH]n3)nn12	11	-8.23
CCn1cc(CN2C[C@@H]3CCCN3C[C@@H]2CCSC)cn1	-2.247	4.566
COc1ccccc1C(=O)N1CCC(O)(c2cccc(C)c2C)CC1	4.865	-10.69
O=C(O)c1cc(S(=O)(=O)Nc2cc(F)ccc2F)cc2c1OCCO2	3.03	-7.256
CCS(=O)(=O)N1CCC2(CC1)c1ncc(-c3cccnc3)n1CCN2C	3.175	2.15
Cc1ccccc1C1CCCN(C(=O)c2c[nH]c(=O)c(Cl)c2)C1 (configuration not stated)	5.202	2.77
N#Cc1ccc(F)c(CNC(=O)NC(CO)c2ccccc2)c1 (configuration not stated)	1.657	-4.685
CSCc1noc(CN2CCCCC2CCc2ccc(O)cc2)n1 (configuration not stated)	5.6	-8.628

The last 3 entries again:

Cc1ccccc1C1CCCN(C(=O)c2c[nH]c(=O)c(Cl)c2)C1 (configuration not stated) read TcHisRS: 5.202%; ClpP1P2: 2.77%.
N#Cc1ccc(F)c(CNC(=O)NC(CO)c2ccccc2)c1 (configuration not stated) read TcHisRS: 1.657%; ClpP1P2: -4.685%.
CSCc1noc(CN2CCCCC2CCc2ccc(O)cc2)n1 (configuration not stated) read TcHisRS: 5.6%; ClpP1P2: -8.628%.

From ChEMBL document CHEMBL3988442, “University of Dundee, Small-Polar-MMV Screening Library” (2021).